This passage reports binding results from doi:10.1101/2022.04.25.489402.

By UniProt entry, the sequences of proteins in these tests, tags left out.
UniProt O60248: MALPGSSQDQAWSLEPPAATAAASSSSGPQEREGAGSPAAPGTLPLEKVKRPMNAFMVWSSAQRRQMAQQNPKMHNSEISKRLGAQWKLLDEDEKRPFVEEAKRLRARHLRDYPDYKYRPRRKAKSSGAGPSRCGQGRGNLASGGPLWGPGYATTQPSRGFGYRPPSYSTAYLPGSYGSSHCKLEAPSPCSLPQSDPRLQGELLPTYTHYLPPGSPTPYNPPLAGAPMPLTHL
UniProt Q8NE71: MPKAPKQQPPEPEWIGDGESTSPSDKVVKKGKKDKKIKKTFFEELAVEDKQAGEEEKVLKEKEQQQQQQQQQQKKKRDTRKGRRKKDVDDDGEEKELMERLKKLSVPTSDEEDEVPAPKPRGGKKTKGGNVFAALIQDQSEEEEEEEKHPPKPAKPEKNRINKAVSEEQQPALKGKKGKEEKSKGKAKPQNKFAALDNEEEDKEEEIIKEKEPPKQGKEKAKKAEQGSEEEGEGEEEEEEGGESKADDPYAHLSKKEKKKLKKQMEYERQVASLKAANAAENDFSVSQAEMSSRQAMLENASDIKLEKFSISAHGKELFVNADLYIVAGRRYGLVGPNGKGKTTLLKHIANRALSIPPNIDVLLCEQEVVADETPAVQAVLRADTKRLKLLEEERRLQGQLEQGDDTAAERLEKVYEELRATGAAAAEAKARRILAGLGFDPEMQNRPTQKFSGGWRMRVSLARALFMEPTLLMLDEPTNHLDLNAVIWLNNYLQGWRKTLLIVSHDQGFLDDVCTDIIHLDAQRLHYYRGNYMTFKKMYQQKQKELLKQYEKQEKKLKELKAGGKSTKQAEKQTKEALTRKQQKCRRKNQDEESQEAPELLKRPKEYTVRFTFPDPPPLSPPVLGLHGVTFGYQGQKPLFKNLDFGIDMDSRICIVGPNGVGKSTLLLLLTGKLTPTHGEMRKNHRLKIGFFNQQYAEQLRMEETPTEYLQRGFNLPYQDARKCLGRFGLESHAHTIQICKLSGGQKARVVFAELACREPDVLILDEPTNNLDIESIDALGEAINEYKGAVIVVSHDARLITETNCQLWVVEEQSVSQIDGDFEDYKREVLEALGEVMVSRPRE
UniProt Q01831: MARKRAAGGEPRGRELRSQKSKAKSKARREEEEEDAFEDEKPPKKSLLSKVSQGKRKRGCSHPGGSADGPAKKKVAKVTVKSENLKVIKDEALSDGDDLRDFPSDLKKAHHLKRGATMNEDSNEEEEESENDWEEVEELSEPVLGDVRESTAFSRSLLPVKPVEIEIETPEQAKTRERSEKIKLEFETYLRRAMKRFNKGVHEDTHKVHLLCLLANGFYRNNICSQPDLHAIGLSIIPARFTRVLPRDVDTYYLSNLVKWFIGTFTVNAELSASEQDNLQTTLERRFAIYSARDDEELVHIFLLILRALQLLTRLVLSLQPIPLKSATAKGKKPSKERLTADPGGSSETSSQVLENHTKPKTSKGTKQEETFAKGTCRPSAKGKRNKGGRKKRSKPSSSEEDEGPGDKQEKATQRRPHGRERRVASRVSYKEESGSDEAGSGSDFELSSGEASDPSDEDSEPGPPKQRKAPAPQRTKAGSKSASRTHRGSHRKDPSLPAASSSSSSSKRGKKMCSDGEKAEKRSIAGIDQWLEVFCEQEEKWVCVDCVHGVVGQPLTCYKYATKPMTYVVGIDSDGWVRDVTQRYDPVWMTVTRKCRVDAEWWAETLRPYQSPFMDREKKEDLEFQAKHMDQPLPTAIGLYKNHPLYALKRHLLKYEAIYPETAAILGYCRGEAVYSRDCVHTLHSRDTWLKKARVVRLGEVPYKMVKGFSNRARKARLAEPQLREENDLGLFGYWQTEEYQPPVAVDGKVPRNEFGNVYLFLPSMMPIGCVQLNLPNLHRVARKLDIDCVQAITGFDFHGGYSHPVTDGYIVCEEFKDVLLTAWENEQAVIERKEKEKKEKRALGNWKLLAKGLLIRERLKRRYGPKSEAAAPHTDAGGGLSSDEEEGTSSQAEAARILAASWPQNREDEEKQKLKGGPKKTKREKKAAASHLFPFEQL

B1: DKC1 (protein, UniProt O60832 1-514)
chain: MADAEVIILPKKHKKKKERKSLPEEDVAEIQHAEEFLIKPESKVAKLDTSQWPLLLKNFDKLNVRTTHYTPLACGSNPLKREIGDYIRTGFINLDKPSNPSSHEVVAWIRRILRVEKTGHSGTLDPKVTGCLIVCIERATRLVKSQQSAGKEYVGIVRLHNAIEGGTQLSRALETLTGALFQRPPLIAAVKRQLRVRTIYESKMIEYDPERRLGIFWVSCEAGTYIRTLCVHLGLLLGVGGQMQELRRVRSGVMSEKDHMVTMHDVLDAQWLYDNHKDESYLRRVVYPLEKLLTSHKRLVMKDSAVNAICYGAKIMLPGVLRYEDGIEVNQEIVVITTKGEAICMAIALMTTAVISTCDHGIVAKIKRVIMERDTYPRKWGLGPKASQKKLMIKQGLLDKHGKPTDSTPATWKQEYVDYSESAKKEVVAEVVKAPQVVAEAAKTAKRKRESESESDETPPAAPQLIKKEKKKSKKDKKAKAGLESGAEPGDGDSDTTKKKKKKKKAKEVELVSE

Results are given in words; binding and its absence hold for the method and conditions named. In cells and extracts the contact can be indirect. Some binding calls cover weakened binding; strength is not graded here.

The assay concerns the target FLAG-tagged SOX15 (human) (UniProt O60248). Description: co-IP.
Turning to “V5-tagged ABCF1 (from UniProt Q8NE71 1-845)”, the binding entry is on record as “binds”.
Then XPC (from UniProt Q01831 1-940), with “binds”; and B1, with “binds”.
